Source: the supplement of paper PMC10849652
This is one part of the list. Residues, ends and D or L forms follow the SMILES beside them. *: point of attachment. Cbz = O=C(OCc1ccccc1)*

The chains behind the UniProt entries cited, without tags or fusion partners. Where a name states a change or a piece, a line headed by the entry shows the natural chain unless it says otherwise.
UniProt O14772: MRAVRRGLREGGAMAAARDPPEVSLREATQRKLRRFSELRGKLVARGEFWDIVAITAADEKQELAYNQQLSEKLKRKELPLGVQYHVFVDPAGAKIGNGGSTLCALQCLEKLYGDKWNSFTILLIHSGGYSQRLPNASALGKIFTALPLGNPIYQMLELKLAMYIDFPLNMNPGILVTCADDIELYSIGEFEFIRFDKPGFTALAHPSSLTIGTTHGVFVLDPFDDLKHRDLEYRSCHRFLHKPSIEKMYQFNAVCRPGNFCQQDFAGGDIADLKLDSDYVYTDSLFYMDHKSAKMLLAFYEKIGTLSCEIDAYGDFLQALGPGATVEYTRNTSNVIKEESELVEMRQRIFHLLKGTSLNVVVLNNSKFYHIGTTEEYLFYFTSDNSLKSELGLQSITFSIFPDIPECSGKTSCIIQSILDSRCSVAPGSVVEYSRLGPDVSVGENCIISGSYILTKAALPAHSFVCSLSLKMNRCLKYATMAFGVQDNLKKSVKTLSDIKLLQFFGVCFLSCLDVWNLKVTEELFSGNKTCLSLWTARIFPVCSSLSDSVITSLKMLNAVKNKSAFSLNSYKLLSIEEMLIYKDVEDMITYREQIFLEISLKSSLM
UniProt O94915: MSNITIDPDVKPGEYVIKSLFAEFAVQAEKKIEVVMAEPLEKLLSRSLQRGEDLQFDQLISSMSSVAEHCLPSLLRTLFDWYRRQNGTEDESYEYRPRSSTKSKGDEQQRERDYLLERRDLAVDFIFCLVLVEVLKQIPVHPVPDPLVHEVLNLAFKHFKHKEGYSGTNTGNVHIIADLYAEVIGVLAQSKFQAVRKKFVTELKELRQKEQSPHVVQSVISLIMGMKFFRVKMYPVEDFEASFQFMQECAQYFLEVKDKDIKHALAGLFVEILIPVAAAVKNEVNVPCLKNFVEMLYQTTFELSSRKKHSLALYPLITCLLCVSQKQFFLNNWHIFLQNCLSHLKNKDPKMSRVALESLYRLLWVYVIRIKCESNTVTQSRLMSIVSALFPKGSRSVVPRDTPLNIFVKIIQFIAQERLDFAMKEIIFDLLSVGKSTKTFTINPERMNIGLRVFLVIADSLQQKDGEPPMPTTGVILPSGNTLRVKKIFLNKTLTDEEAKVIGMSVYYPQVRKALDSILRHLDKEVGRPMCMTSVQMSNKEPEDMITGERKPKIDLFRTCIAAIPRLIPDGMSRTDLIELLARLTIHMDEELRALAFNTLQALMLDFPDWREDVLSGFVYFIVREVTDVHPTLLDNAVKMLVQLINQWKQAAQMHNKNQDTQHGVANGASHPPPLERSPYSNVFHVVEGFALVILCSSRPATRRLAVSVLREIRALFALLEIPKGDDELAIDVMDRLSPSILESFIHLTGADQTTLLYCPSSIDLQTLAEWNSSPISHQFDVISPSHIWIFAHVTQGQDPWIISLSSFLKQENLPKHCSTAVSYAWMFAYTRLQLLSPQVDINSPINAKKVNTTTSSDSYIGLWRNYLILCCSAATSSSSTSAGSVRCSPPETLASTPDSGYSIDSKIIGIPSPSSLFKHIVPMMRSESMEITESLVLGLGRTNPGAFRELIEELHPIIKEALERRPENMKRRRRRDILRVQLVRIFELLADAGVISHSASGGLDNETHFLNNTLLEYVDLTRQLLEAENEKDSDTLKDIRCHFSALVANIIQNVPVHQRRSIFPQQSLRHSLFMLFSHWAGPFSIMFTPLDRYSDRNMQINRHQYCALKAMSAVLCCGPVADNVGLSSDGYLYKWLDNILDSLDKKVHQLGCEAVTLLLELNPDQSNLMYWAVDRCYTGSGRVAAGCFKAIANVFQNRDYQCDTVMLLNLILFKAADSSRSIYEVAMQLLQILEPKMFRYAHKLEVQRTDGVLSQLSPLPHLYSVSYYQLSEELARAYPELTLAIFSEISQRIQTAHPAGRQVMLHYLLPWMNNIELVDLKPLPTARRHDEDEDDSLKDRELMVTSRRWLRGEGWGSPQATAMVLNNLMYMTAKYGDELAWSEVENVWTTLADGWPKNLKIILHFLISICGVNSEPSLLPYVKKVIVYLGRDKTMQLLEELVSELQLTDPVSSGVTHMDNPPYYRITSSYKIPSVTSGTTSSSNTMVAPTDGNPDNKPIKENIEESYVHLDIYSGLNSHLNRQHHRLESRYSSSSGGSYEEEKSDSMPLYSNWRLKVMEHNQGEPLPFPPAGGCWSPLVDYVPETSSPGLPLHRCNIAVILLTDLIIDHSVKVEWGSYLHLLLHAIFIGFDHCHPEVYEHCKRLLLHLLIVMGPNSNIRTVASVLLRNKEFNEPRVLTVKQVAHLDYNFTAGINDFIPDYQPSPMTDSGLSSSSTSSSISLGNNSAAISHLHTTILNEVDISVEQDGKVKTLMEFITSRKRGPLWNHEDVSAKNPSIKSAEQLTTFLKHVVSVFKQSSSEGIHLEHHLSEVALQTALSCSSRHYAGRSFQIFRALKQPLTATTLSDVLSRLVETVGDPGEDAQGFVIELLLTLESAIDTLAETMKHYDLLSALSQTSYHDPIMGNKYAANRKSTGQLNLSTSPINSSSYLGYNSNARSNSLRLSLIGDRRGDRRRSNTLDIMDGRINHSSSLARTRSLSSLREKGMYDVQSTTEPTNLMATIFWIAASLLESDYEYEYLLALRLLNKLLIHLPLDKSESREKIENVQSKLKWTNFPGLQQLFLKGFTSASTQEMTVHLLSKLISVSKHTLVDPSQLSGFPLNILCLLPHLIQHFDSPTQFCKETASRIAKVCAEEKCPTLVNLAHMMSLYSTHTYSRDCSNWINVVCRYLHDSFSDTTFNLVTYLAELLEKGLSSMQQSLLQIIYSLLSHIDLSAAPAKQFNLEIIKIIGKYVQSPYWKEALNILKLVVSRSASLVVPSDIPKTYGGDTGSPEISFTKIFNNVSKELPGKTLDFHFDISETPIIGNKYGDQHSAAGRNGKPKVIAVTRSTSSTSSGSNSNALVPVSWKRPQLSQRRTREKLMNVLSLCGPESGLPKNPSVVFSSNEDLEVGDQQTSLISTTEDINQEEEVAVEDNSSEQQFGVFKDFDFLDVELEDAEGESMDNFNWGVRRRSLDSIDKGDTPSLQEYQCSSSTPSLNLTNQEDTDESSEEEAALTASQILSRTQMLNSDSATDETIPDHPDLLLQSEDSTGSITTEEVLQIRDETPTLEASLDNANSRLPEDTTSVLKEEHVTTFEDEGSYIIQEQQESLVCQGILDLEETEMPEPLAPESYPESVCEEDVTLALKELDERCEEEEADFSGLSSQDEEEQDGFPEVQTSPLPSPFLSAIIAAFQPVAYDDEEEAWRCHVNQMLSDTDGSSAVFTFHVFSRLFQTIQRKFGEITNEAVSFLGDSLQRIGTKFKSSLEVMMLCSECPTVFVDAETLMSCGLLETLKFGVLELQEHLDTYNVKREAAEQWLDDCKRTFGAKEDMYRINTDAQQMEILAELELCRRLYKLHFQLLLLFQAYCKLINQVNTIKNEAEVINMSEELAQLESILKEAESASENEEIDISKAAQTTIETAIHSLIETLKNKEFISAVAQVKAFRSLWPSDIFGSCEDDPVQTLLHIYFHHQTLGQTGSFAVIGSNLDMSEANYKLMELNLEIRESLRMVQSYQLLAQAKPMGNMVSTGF
UniProt P30047: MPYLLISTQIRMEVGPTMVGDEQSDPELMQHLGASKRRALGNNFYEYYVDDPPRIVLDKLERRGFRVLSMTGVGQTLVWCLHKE
UniProt P09958, whole entry, looked up: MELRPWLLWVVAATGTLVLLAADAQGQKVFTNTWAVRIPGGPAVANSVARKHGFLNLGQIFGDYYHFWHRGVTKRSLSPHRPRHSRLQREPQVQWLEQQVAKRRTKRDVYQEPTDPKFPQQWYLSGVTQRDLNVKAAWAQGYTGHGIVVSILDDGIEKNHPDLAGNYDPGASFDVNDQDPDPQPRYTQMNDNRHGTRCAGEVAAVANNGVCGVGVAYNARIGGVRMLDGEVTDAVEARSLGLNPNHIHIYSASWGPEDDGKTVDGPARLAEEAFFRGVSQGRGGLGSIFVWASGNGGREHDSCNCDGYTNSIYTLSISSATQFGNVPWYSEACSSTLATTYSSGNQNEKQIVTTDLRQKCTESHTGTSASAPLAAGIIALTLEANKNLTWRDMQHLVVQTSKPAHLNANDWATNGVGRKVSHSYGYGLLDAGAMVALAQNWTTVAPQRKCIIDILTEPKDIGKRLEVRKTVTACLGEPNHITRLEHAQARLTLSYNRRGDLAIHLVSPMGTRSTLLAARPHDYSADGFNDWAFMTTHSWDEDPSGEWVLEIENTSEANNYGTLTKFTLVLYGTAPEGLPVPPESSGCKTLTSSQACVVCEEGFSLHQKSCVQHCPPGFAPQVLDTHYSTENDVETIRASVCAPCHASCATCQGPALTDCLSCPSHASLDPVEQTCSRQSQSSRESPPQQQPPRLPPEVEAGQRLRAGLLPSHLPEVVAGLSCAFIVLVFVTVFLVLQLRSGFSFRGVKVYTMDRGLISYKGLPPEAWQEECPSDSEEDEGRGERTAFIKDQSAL
UniProt Q9UET6: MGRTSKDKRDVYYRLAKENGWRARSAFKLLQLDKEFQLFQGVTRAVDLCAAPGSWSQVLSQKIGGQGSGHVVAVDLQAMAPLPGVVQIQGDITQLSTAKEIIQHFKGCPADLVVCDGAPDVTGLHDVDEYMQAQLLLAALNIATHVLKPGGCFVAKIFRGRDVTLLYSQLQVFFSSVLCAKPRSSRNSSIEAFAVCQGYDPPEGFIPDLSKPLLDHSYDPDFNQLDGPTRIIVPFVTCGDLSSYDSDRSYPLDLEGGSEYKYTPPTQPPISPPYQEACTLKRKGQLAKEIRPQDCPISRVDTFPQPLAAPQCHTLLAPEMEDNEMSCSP
UniProt Q9UJY5: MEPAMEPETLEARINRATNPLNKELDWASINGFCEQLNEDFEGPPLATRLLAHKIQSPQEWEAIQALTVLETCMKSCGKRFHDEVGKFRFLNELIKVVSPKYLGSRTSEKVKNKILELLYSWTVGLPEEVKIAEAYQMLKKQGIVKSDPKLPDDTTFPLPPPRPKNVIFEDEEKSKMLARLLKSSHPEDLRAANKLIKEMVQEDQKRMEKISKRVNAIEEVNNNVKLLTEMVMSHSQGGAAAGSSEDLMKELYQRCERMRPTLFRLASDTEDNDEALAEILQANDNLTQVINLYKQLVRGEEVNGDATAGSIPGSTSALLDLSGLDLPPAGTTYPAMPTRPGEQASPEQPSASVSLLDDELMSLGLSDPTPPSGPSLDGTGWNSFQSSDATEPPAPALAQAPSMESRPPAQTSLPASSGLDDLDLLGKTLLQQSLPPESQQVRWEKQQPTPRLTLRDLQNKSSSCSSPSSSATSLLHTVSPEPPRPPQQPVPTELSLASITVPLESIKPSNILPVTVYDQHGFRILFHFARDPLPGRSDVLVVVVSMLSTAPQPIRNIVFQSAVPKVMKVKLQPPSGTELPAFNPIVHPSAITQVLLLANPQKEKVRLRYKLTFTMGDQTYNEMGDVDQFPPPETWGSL
UniProt P41250: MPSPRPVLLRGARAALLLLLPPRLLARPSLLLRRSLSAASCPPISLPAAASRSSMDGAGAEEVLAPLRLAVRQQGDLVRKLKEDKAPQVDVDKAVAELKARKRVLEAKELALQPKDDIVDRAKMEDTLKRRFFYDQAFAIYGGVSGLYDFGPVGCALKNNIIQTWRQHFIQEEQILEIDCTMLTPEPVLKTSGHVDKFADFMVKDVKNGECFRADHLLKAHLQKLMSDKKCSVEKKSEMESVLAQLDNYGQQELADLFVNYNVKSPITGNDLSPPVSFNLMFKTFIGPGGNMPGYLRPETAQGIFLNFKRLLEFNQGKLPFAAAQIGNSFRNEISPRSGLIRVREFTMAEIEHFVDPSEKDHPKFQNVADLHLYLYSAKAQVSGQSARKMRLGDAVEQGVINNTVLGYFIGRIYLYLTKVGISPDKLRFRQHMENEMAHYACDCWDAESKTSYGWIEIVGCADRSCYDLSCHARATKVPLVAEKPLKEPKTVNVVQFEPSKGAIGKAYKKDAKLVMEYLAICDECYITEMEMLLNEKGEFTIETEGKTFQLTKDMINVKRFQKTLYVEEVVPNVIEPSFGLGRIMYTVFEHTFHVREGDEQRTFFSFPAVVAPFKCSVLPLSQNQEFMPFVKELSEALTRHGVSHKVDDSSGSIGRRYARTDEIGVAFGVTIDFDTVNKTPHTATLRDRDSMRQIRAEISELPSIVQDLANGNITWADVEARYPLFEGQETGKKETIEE
UniProt P04406: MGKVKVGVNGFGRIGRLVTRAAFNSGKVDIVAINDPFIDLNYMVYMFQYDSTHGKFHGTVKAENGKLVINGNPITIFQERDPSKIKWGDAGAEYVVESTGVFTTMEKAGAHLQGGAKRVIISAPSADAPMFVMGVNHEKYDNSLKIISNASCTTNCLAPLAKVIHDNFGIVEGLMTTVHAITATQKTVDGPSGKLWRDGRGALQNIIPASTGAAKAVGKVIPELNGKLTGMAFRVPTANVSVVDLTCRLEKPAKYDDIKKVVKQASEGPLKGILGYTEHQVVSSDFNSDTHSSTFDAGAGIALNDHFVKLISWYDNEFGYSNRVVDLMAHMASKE

Legend:
Assay in all cases: log2 fold change, soluble protein after heating vs DMSO (PISA); higher = thermal stabilisation; K562 cells, 10 uM, 30 min; active = over 0.2 and 3.5 SD of the protein, either way, in both replicates (recomputed)
IRAK-1-4 Inhibitor I = compound: C1COCCN1CCN2C3=CC=CC=C3N=C2NC(=O)C4=CC(=CC=C4)[N+](=O)[O-] [IRAK-1-4 Inhibitor I]
In short: (§1)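 K562 cells (2×10^6 cells/mL) were treated with 10 μM compound for 30 min, and aliquots were heated for 3 min over 48°C-58°C. Pooled aliquots were extracted in PBS with 0.5% NP-40 at 4°C, and the supernatant after 21,000xg for 90 min was measured by TMTpro 16plex LC-MS/MS with channel sums equalised. Reported thermal stability, relative to control samples and from duplicates, is a log2 fold change.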

ibrutinib = compound: C=CC(=O)N1CCC[C@@H](n2nc(-c3ccc(Oc4ccccc4)cc3)c3c(N)ncnc32)C1 [ibrutinib]
In short: as §1

[1] = compound: CC(=O)c1cnc2ccc(-c3cc(Cl)c(O)c(Cl)c3)nc2c1N[C@H]1CC[C@H](CN(C)C)CC1
In short: as §1

ralimetinib = compound: CC(C)(C)Cn1c(N)nc2ccc(-c3[nH]c(C(C)(C)C)nc3-c3ccc(F)cc3)nc21 [ralimetinib]
In short: as §1

[2] = compound: CC(C)(O)CC(=O)NCCn1ccc2ncnc(Nc3ccc(Oc4cccc(C(F)(F)F)c4)c(Cl)c3)c21
In short: as §1

[3] = compound: CC(C)C1=C2N=C(C=C(N2N=C1)NCC3=CC=CC=C3)NCCCCCCN
In short: as §1

[4] = compound: CC(C)C[C@@H](C=O)NC(=O)[C@H](CC(C)C)NC(=O)[C@H](CC(C)C)NC(=O)OCc1ccccc1
In short: as §1

pinometostat = compound: CC(C)N(C[C@H]1O[C@@H](n2cnc3c(N)ncnc32)[C@H](O)[C@@H]1O)[C@H]1C[C@@H](CCc2nc3cc(C(C)(C)C)ccc3[nH]2)C1 [pinometostat]
In short: as §1

[5] = compound: CC1=C(C(CC(=O)N1)C2=CC=C(C=C2)C(F)(F)F)C(=O)NC3=C(C=C4C(=C3)C=NN4)F
In short: as §1

[6] = compound: CC1=C(C2=C(C=C1)C(=O)C3=CC=CC=C3N2CCCN)C
In short: as §1

Measured: log2 fold change

GADD45GIP1 (UniProt Q8TAE8)
inactive: IRAK-1-4 Inhibitor I -0.008 | ibrutinib -0.016 | [1] 0.071 | ralimetinib 0.052 | [2] -0.055 | [3] 0.007 | [4] 0.112 | pinometostat 0.01 | [5] 0.006 | [6] -0.074

G3BP2 (UniProt Q9UN86)
inactive: IRAK-1-4 Inhibitor I -0.154 | ibrutinib 0.05 | [1] 0.102 | ralimetinib 0.058 | [2] 0.068 | [3] -0.028 | [4] 0.064 | pinometostat 0.249 | [5] -0.015 | [6] -0.427

FPGT (UniProt O14772)
inactive: IRAK-1-4 Inhibitor I 0.061 | ibrutinib -0.007 | [1] -0.015 | ralimetinib -0.013 | [2] -0.138 | [3] -0.01 | [4] -0.025 | pinometostat 0.01 | [5] 0.017 | [6] 0.03

GGNBP2 (UniProt Q9H3C7)
inactive: IRAK-1-4 Inhibitor I -0.198 | ibrutinib 0.096 | [1] -0.082 | ralimetinib 0.024 | [2] 0 | [3] 0.036 | [4] 0.22 | pinometostat 0.16 | [5] -0.232 | [6] -0.062

GANAB isoform 2 (UniProt Q14697)
inactive: IRAK-1-4 Inhibitor I -0.072 | ibrutinib -0.036 | [1] 0 | ralimetinib 0.006 | [2] 0.036 | [3] -0.039 | [4] 0.012 | pinometostat 0.004 | [5] -0.005 | [6] -0.012

GALNT7 (UniProt Q86SF2)
inactive: IRAK-1-4 Inhibitor I 0.001 | ibrutinib 0.019 | [1] 0.036 | ralimetinib -0.049 | [2] -0.013 | [3] -0.011 | [4] -0.029 | pinometostat -0.022 | [5] -0.001 | [6] -0.033

FUNDC2 (UniProt Q9BWH2)
inactive: IRAK-1-4 Inhibitor I 0.03 | ibrutinib 0.009 | [1] -0.006 | ralimetinib -0.051 | [2] 0.085 | [3] -0.046 | [4] 0.019 | pinometostat -0.017 | [5] 0.03 | [6] -0.02

FTH1 (UniProt P02794)
inactive: IRAK-1-4 Inhibitor I -0.042 | ibrutinib 0.006 | [1] -0.067 | ralimetinib 0.096 | [2] 0.115 | [3] 0.015 | [4] 0.14 | pinometostat 0.024 | [5] 0.143 | [6] -0.005

FRYL (UniProt O94915)
inactive: IRAK-1-4 Inhibitor I 0.014 | ibrutinib -0.053 | [1] -0.044 | ralimetinib 0.045 | [2] -0.015 | [3] -0.013 | [4] 0.02 | pinometostat 0.082 | [5] -0.004 | [6] 0.006

GAMT (UniProt Q14353)
inactive: IRAK-1-4 Inhibitor I 0 | ibrutinib 0.014 | [1] 0.007 | ralimetinib 0.078 | [2] -0.074 | [3] -0.063 | [4] -0.016 | pinometostat -0.028 | [5] -0.029 | [6] -0.04

G3BP1 (UniProt Q13283)
inactive: IRAK-1-4 Inhibitor I -0.098 | ibrutinib 0.081 | [1] 0.036 | ralimetinib 0.139 | [2] 0.106 | [3] -0.07 | [4] 0.1 | pinometostat 0.165 | [5] 0 | [6] -0.211

GC isoform 3 (UniProt P02774)
inactive: IRAK-1-4 Inhibitor I 0.22 | ibrutinib 0.165 | [1] 0.212 | ralimetinib 0.099 | [2] 0.389 | [3] 0.094 | [4] -0.135 | pinometostat -0.159 | [5] 0.027 | [6] -0.195

FOXRED1 (UniProt Q96CU9)
inactive: IRAK-1-4 Inhibitor I -0.015 | ibrutinib 0.14 | [1] -0.001 | ralimetinib -0.064 | [2] -0.021 | [3] -0.014 | [4] 0.057 | pinometostat -0.034 | [5] -0.008 | [6] 0.074

GCHFR (UniProt P30047)
inactive: IRAK-1-4 Inhibitor I -0.037 | ibrutinib 0.043 | [1] -0.414 | ralimetinib -0.006 | [2] 0.074 | [3] 0.239 | [4] -0.069 | pinometostat -0.002 | [5] -0.012 | [6] 0.285

FURIN (UniProt P09958)
inactive: IRAK-1-4 Inhibitor I 0.03 | ibrutinib 0.042 | [1] -0.006 | ralimetinib 0.053 | [2] 0.007 | [3] -0.219 | [4] -0.001 | pinometostat -0.015 | [5] 0.01 | [6] -0.088

GGCX (UniProt P38435)
inactive: IRAK-1-4 Inhibitor I -0.025 | ibrutinib 0.009 | [1] -0.053 | ralimetinib 0.116 | [2] -0.313 | [3] -0.24 | [4] 0.002 | pinometostat 0.1 | [5] 0.004 | [6] -0.023

GGCT (UniProt O75223)
inactive: IRAK-1-4 Inhibitor I 0.045 | ibrutinib -0.04 | [1] 0.003 | ralimetinib -0.074 | [2] -0.008 | [3] 0.007 | [4] -0.011 | pinometostat -0.016 | [5] -0.009 | [6] 0.003

FTSJ1 (UniProt Q9UET6)
inactive: IRAK-1-4 Inhibitor I 0.006 | ibrutinib -0.004 | [1] 0.064 | ralimetinib 0.028 | [2] -0.031 | [3] -0.043 | [4] -0.05 | pinometostat 0.076 | [5] -0.008 | [6] 0.009

GAGE5 (UniProt Q13069)
inactive: IRAK-1-4 Inhibitor I 0.019 | ibrutinib 0.011 | [1] 0.023 | ralimetinib -0.104 | [2] -0.038 | [3] 0.019 | [4] -0.049 | pinometostat -0.069 | [5] 0.027 | [6] 0.071

FTL (UniProt P02792)
inactive: IRAK-1-4 Inhibitor I -0.054 | ibrutinib -0.073 | [1] -0.116 | ralimetinib -0.015 | [2] 0.045 | [3] -0.061 | [4] 0.055 | pinometostat -0.045 | [5] 0.1 | [6] -0.086

FSCN1 (UniProt Q16658)
inactive: IRAK-1-4 Inhibitor I 0.029 | ibrutinib -0.033 | [1] 0.007 | ralimetinib 0.006 | [2] 0 | [3] 0.017 | [4] -0.024 | pinometostat -0.068 | [5] -0.018 | [6] 0.014

FRG1 (UniProt Q14331)
inactive: IRAK-1-4 Inhibitor I 0.034 | ibrutinib 0.006 | [1] 0.094 | ralimetinib 0.017 | [2] 0.054 | [3] 0.1 | [4] 0.111 | pinometostat 0.158 | [5] 0.029 | [6] 0.053

GGA1 isoform 6 (UniProt Q9UJY5)
inactive: IRAK-1-4 Inhibitor I 0.028 | ibrutinib -0.007 | [1] 0.018 | ralimetinib -0.05 | [2] 0.067 | [3] 0.027 | [4] 0.067 | pinometostat 0.007 | [5] 0.017 | [6] 0.014

FYCO1 isoform 4 (UniProt Q9BQS8)
inactive: IRAK-1-4 Inhibitor I -0.039 | ibrutinib -0.014 | [1] -0.117 | ralimetinib -0.015 | [2] -0.041 | [3] -0.095 | [4] 0.187 | pinometostat 0.096 | [5] 0.016 | [6] 0.018

GARS1 (UniProt P41250)
inactive: IRAK-1-4 Inhibitor I 0.042 | ibrutinib -0.008 | [1] 0.012 | ralimetinib -0.075 | [2] 0.01 | [3] 0.044 | [4] -0.038 | pinometostat -0.046 | [5] -0.003 | [6] 0.005

GGPS1 (UniProt O95749)
inactive: IRAK-1-4 Inhibitor I 0.019 | ibrutinib -0.035 | [1] -0.02 | ralimetinib -0.074 | [2] -0.005 | [3] 0.061 | [4] -0.015 | pinometostat -0.046 | [5] 0.05 | [6] 0.023

FUBP1 (UniProt Q96AE4)
inactive: IRAK-1-4 Inhibitor I 0.014 | ibrutinib -0.035 | [1] 0.065 | ralimetinib -0.049 | [2] -0.031 | [3] -0.002 | [4] 0.041 | pinometostat -0.049 | [5] -0.031 | [6] -0.015

GAPDH (UniProt P04406)
inactive: IRAK-1-4 Inhibitor I 0.037 | ibrutinib 0.021 | [1] 0.018 | ralimetinib -0.007 | [2] 0.044 | [3] 0.076 | [4] -0.045 | pinometostat -0.099 | [5] -0.03 | [6] 0.02

Fetched one by one from the entries so far (two):
FTH1 (UniProt P02794)
inactive: IRAK-1-4 Inhibitor I -0.042 | ibrutinib 0.006 | [1] -0.067 | ralimetinib 0.096 | [2] 0.115 | [3] 0.015 | [4] 0.14 | pinometostat 0.024 | [5] 0.143 | [6] -0.005

FPGT (UniProt O14772)
inactive: IRAK-1-4 Inhibitor I 0.061 | ibrutinib -0.007 | [1] -0.015 | ralimetinib -0.013 | [2] -0.138 | [3] -0.01 | [4] -0.025 | pinometostat 0.01 | [5] 0.017 | [6] 0.03

(next part)

GALK2 (UniProt Q01415)
inactive: IRAK-1-4 Inhibitor I 0.005 | ibrutinib 0.041 | [1] -0.004 | ralimetinib -0.023 | [2] -0.054 | [3] 0.009 | [4] -0.03 | pinometostat -0.034 | [5] 0.034 | [6] 0.022

GFM1 (UniProt Q96RP9)
inactive: IRAK-1-4 Inhibitor I 0.022 | ibrutinib -0.004 | [1] -0.069 | ralimetinib -0.075 | [2] -0.146 | [3] -0.138 | [4] 0.021 | pinometostat -0.049 | [5] -0.024 | [6] 0.129
